For one molecule, binding results are on record in patent publication US20120121706A1 (TUFTS MEDICAL CENTER, published 2012).

The chains behind the UniProt entries cited, without tags or fusion partners. Where a name states a change or a piece, a line headed by the entry shows the natural chain unless it says otherwise.
UniProt P17301: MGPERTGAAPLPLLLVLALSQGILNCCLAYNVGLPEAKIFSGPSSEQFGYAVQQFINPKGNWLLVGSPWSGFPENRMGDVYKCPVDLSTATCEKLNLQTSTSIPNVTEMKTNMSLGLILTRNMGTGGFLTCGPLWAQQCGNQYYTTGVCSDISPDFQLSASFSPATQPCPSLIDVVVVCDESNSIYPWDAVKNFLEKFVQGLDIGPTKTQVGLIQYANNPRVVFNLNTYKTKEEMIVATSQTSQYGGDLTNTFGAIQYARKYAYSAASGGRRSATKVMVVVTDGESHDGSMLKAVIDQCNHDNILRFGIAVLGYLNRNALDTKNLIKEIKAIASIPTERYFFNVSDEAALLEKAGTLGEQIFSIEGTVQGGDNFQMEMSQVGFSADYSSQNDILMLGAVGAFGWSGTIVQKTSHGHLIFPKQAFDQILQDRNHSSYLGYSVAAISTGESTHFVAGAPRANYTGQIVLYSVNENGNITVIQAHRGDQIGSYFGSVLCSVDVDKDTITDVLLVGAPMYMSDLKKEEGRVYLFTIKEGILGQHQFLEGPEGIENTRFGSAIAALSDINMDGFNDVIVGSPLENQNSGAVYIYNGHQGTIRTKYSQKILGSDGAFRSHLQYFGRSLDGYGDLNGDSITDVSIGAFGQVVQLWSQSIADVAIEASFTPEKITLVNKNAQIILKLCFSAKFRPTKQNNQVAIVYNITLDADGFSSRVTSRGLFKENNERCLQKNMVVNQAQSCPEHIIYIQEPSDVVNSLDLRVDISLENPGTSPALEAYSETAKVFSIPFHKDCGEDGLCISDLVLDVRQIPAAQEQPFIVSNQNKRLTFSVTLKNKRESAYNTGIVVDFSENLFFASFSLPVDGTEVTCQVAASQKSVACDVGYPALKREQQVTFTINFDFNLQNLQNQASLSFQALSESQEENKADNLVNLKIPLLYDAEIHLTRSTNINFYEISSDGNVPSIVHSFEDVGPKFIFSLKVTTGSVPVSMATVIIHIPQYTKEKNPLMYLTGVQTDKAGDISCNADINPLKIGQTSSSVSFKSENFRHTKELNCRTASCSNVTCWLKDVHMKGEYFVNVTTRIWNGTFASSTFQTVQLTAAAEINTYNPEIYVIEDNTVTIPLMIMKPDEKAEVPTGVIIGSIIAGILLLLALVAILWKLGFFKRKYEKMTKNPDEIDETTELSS
UniProt P05556: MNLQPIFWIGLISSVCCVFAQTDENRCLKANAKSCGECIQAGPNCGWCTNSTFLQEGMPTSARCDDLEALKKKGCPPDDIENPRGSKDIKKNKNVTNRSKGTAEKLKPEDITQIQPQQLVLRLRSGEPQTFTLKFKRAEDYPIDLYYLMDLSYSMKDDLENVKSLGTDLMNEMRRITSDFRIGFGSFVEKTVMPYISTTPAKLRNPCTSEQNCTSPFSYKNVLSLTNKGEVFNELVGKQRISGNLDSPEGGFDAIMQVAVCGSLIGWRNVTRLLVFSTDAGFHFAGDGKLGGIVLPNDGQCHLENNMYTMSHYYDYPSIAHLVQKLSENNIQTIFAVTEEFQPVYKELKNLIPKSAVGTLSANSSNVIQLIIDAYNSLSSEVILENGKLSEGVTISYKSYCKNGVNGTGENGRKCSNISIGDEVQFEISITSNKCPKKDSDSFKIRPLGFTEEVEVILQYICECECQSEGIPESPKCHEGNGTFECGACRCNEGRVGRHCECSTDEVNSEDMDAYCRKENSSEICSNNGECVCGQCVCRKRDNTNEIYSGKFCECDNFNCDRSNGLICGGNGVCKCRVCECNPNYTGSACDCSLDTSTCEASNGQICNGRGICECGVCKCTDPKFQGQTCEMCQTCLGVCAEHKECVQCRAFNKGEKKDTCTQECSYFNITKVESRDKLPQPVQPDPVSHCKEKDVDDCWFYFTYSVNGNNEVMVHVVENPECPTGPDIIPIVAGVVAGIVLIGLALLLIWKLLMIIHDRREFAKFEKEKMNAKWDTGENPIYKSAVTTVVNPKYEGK

Assay [1] has as its target T1, α2β1 integrin (collagen receptor) of human platelets (human) (UniProt P17301+P05556). Description: co-immunoprecipitation, FIG. 1D legend.
The target in assay [2] is T1, α2β1 integrin (collagen receptor) of human platelets (human). As to the kind of experiment: co-immunoprecipitation from resting human platelet lysates (anti-α2, anti-β1), Western for MMP-1.

These are yes or no findings as the source states them, for the method shown. In cells and extracts the contact can be indirect. Some results given as binding are weak or reduced against the parent protein; the word gives no strength.

B1: proMMP-1 (platelet-associated zymogen of MMP-1) (enzyme, human, UniProt P03956 20-469, looked up)
chain: FPATLETQEQDVDLVQKYLEKYYNLKNDGRQVEKRRNSGPVVEKLKQMQEFFGLKVTGKPDAETLKVMKQPRCGVPDVAQFVLTEGNPRWEQTHLTYRIENYTPDLPRADVDHAIEKAFQLWSNVTPLTFTKVSEGQADIMISFVRGDHRDNSPFDGPGGNLAHAFQPGPGIGGDAHFDEDERWTNNFREYNLHRVAAHELGHSLGLSHSTDIGALMYPSYTFSGDVQLAQDDIDGIQAIYGRSQNPVQPIGPQTPKACDSKLTFDAITTIRGEVMFFKDRFYMRTNPFYPEVELNFISVFWPQLPNGLEAAYEFADRDEVRFFKGNKYWAVQGQNVLHGYPKDIYSSFGFPRTVKHIDAALSEENTGKTYFFVANKYWRYDEYKRSMDPGYPKMIAHDFPGIGHKVDAVFMKDGFFYFFHGTRQYKFDPKTKRILTLQKANSWFNCRKN
notes: Endogenous protein co-immunoprecipitated from platelet lysates; detected by Western with AB8105 or AB806; also called MMP-1 (predominantly in the pro form)
B1: the binding result in assay [1] and in assay [2] was “binds” in each case.
